No constants are given. Whether binding was seen depends on the method and setting. In cells and extracts the contact can be indirect. Some results given as binding are weak or reduced against the parent protein; the word gives no strength.
Target: T1, aldehyde dehydrogenase 4A1 (ALDH4A1) (human (endogenous in HUVECs)) (UniProt P30038)
T1 sequence: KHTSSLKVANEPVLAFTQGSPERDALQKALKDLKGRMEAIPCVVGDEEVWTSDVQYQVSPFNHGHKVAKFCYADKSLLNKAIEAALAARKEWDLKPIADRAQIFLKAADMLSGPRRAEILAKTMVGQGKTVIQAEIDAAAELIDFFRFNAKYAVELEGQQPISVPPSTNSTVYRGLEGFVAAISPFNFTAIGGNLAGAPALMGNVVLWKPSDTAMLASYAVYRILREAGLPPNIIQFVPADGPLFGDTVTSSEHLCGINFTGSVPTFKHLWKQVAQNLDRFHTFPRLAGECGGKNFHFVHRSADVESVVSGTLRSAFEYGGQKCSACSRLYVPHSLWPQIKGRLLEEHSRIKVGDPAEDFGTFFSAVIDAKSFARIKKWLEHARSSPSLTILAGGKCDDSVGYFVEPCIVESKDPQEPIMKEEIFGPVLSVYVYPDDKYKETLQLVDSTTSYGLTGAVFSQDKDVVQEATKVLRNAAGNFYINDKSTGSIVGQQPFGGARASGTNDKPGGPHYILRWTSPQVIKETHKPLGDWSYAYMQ
Experiment: co-IP; HUVEC lysate; rProtein A/G MagPoly beads loaded with anti-ALDH4A1 or anti-Trim28 antibodies (IP/co-IP kit), eluate read by western blotting

Sequences of proteins named here, by UniProt entry; tags and fusion partners are left off.
UniProt Q13263: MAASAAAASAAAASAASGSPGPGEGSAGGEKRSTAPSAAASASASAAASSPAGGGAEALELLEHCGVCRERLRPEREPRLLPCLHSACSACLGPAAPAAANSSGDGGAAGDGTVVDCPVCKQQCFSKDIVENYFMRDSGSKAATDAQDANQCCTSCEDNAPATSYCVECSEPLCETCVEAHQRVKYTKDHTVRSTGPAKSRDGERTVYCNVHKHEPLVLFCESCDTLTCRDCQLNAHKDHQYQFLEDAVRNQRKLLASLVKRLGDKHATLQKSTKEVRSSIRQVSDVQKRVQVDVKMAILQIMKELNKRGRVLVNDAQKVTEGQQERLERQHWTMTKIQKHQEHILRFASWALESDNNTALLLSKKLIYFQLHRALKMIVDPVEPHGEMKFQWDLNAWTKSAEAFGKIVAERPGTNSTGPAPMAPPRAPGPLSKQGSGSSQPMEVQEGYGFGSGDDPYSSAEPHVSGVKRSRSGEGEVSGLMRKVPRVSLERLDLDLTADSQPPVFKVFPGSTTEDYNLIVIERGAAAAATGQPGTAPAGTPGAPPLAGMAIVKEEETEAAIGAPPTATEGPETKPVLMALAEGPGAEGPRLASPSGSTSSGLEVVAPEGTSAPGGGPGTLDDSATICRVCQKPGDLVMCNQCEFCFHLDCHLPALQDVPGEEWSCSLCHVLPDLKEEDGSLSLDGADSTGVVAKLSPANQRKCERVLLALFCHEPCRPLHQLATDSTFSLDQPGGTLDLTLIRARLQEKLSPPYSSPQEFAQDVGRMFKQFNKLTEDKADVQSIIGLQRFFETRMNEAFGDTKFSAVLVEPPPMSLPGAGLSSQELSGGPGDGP

binding: binds
Substance: Tripartite motif-containing 28 (Trim28) (from UniProt Q13263 1-835)

Reference: article PMC12628478
